{"source": "PubChem BioAssay AID1224830 (NIAID, 2016)", "assay": "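Genes whose knock-down alters the TNF-alpha reporter response to LPS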 (primary screen)", "cell system": "human THP-1 monocytic leukaemia cells, TNF dual-luciferase reporter clone, PMA-differentiated to macrophage-like cells", "reagents": "siRNA pool against human genes, 50 nM", "time to read-out": "LPS for 4 h, given about 3 days after siRNA transfection", "conditions": "bacterial LPS (TLR4 ligand), 10 ng/ml", "read-out": "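Ratio of firefly to renilla light, scaled to the plate median and expressed as a robust z-score per replicate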", "direction": "TNF reporter robust z-score: higher = stronger TNF reporter response to LPS", "hit rule": "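Each well counts as active if its z-score is over 2.8 or under -1.5; controls are left without a call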", "note": "The deposit covers about 18,000 reagents; below is an unselected part. Of all reagents, about 2,900 (16%) are marked active. 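Calls are made per well; low scores hint the gene aids the LPS response, high scores that it dampens it.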 Entries without a mark were called inactive. Repeated entries: four replicate wells of each siRNA pool. No sequences are given here."}
{"gene knocked down":"FAM53A","TNF reporter robust z-score":-1.48}
{"gene knocked down":"FAM53A","TNF reporter robust z-score":-0.98}
{"gene knocked down":"FAM53A","TNF reporter robust z-score":-1.15}
{"gene knocked down":"FAM53A","TNF reporter robust z-score":-0.45}
{"gene knocked down":"SSX6P","TNF reporter robust z-score":-0.69}
{"gene knocked down":"SSX6P","TNF reporter robust z-score":0.38}
{"gene knocked down":"SSX6P","TNF reporter robust z-score":-0.81}
{"gene knocked down":"SSX6P","TNF reporter robust z-score":-0.34}
{"gene knocked down":"ZNF331","TNF reporter robust z-score":1.8}
{"gene knocked down":"ZNF331","TNF reporter robust z-score":-1.2}
{"gene knocked down":"ZNF331","TNF reporter robust z-score":-1.36}
{"gene knocked down":"ZNF331","TNF reporter robust z-score":-1.37}
{"gene knocked down":"PGM1","TNF reporter robust z-score":1.63}
{"gene knocked down":"PGM1","TNF reporter robust z-score":0.02}
{"gene knocked down":"PGM1","TNF reporter robust z-score":-0.7}
{"gene knocked down":"PGM1","TNF reporter robust z-score":-0.23}
{"gene knocked down":"SLC11A1","TNF reporter robust z-score":-1.31}
{"gene knocked down":"SLC11A1","TNF reporter robust z-score":-1.33}
{"gene knocked down":"SLC11A1","TNF reporter robust z-score":"-2.15 (active)"}
{"gene knocked down":"SLC11A1","TNF reporter robust z-score":-1.1}
{"gene knocked down":"PHYHIPL","TNF reporter robust z-score":0.64}
{"gene knocked down":"PHYHIPL","TNF reporter robust z-score":0.76}
{"gene knocked down":"PHYHIPL","TNF reporter robust z-score":0.7}
{"gene knocked down":"PHYHIPL","TNF reporter robust z-score":1.51}
{"gene knocked down":"EIF3F","TNF reporter robust z-score":0.95}
{"gene knocked down":"EIF3F","TNF reporter robust z-score":2.33}
{"gene knocked down":"EIF3F","TNF reporter robust z-score":-0.22}
{"gene knocked down":"EIF3F","TNF reporter robust z-score":1.42}
{"gene knocked down":"MS4A10","TNF reporter robust z-score":-0.76}
{"gene knocked down":"MS4A10","TNF reporter robust z-score":-0.01}
{"gene knocked down":"MS4A10","TNF reporter robust z-score":-0.44}
{"gene knocked down":"MS4A10","TNF reporter robust z-score":-0.11}
{"gene knocked down":"OR2M5","TNF reporter robust z-score":-0.59}
{"gene knocked down":"OR2M5","TNF reporter robust z-score":-0.54}
{"gene knocked down":"OR2M5","TNF reporter robust z-score":2.57}
{"gene knocked down":"OR2M5","TNF reporter robust z-score":-0.47}
{"gene knocked down":"SYN1","TNF reporter robust z-score":0.18}
{"gene knocked down":"SYN1","TNF reporter robust z-score":0.79}
{"gene knocked down":"SYN1","TNF reporter robust z-score":-0.77}
{"gene knocked down":"SYN1","TNF reporter robust z-score":1.59}
{"gene knocked down":"CMIP","TNF reporter robust z-score":-1.01}
{"gene knocked down":"CMIP","TNF reporter robust z-score":-0.44}
{"gene knocked down":"CMIP","TNF reporter robust z-score":-0.69}
{"gene knocked down":"CMIP","TNF reporter robust z-score":-0.64}
{"gene knocked down":"RTL9","TNF reporter robust z-score":-0.94}
{"gene knocked down":"RTL9","TNF reporter robust z-score":-0.65}
{"gene knocked down":"RTL9","TNF reporter robust z-score":-0.27}
{"gene knocked down":"RTL9","TNF reporter robust z-score":-0.93}
